No constants are given. Whether binding was seen depends on the method and setting. Some binding calls cover weakened binding; strength is not graded here.
Key:
BSA (bovine) = BSA (bovine) (UniProt P02769); assay: BLI; nonspecific binding control: biotinylated BSA on streptavidin sensors, apparatus proteins as analytes at 1 uM; HBS-T, 25°C; both purified
[1] = biological target: FlhB in hook-basal bodies (HBBs) prepared from SJW880 (Salmonella enterica (endogenous in SJW880)) (UniProt P40727); assay: SDS-PAGE and anti-FlhB immunoblot (SDS-stable dimer); hook-basal body preparation from SJW880

Sequences of proteins named here, by UniProt entry; tags and fusion partners are left off. Residues count along the entry.
UniProt P02769, residues 25-607: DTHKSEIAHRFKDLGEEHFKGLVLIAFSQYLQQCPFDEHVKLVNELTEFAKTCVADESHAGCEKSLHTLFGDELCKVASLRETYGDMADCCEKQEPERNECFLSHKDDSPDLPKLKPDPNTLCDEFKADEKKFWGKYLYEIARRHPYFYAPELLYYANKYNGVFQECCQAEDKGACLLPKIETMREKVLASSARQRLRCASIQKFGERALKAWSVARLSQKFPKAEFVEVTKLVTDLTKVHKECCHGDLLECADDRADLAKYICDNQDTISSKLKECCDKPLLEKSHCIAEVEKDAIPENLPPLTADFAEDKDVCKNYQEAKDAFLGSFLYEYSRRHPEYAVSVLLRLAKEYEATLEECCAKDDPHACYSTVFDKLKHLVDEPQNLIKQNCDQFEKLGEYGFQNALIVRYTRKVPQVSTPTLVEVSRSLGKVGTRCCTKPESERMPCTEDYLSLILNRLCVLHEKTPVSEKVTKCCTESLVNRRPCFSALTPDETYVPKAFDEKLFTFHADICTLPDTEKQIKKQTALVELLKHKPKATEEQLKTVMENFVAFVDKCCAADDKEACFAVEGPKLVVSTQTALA
UniProt P26465: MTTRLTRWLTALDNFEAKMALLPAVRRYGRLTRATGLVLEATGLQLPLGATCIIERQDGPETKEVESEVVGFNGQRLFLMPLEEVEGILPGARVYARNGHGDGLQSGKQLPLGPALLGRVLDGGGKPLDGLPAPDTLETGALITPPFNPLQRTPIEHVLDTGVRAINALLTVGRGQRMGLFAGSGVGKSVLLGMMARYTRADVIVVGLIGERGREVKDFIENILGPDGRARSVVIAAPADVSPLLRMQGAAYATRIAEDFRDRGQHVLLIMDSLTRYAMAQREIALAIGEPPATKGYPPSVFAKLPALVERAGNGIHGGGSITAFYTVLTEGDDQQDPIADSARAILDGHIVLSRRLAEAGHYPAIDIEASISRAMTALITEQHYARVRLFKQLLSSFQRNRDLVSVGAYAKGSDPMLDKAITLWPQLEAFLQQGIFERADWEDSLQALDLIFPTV
UniProt P0A1K1: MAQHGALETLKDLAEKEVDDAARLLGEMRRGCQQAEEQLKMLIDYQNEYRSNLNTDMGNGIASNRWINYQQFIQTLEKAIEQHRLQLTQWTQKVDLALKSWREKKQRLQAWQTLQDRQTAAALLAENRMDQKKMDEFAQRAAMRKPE

Molecule	binding (BSA (bovine))	binding [1]
FliI (from UniProt P26465 1-456) (enzyme)	no binding (tested: 1 μM)	
FliJ (from UniProt P0A1K1 1-147)	no binding (tested: 1 μM)	
FlhB in hook-basal bodies (HBBs) prepared from SJW880 (protein, UniProt P40727 1-383) MAEESDDDKTEAPTPHRLEKAREEGQIPRSRELTSLLILLVGVCIIWFGGESLARQLAGMLSAGLHFDHRMVNDPNLILGQIILLIKAAMMALLPLIAGVVLVALISPVMLGGLIFSGKSLQPKFSKLNPLPGIKRMFSAQTGAELLKAVLKSTLVGCVTGFYLWHHWPQMMRLMAESPIVAMGNALDLVGLCALLVVLGVIPMVGFDVFFQIFSHLKKLRMSRQDIRDEFKESEGDPHVKGKIRQMQRAAAQRRMMEDVPKADVIVTNPTHYSVALQYDENKMSAPKVVAKGAGLIALRIREIGAEHRVPTLEAPPLARALYRHAEIGQQIPGQLYAAVAEVLAWVWQLKRWRLAGGQRPPQPENLPVPEALDFMNEKNTDG		binds
FliH (natural protein, biotin by amine crosslinking (NHS-LC-LC-biotin) when used as ligand, source: E. coli BL21DE3(pLysS), purified (Talon IMAC, gel filtration into HBS-T)) MSNELPWQVWTPDDLAPPPETFVPVEADNVTLTEDTPEPELTAEQQLEQELAQLKIQAHEQGYNAGLAEGRQKGHAQGYQEGLAQGLEQGQAQAQTQQAPIHARMQQLVSEFQNTLDALDSVIASRLMQMALEAARQVIGQTPAVDNSALIKQIQQLLQQEPLFSGKPQLRVHPDDLQRVEEMLGATLSLHGWRLRGDPTLHHGGCKVSADEGDLDASVATRWQELCRLAAPGVL	no binding (tested: 1 μM)	
